# Assay results: patent publication US20040115284A1, “Use of gamma-GT inhibitors for the treatment of degenerative diseases” (priority 2001, published 2004)
# For at least one compound, name, drawing or mass did not settle the structure.
# Test system: Glutathione Peroxidase
# Experiment: Glutathione peroxidase activity in Mpv17 −/− cells (LUSVX) grown in presence of MnTBAP or acivicin
# Assay type: cell-based, mouse
# Conditions: MnTBAP 10 μM or acivicin 50 μM added 18 h before harvesting, means ± SEM (n = 3)
# From the text: Kidneys from background mice (CFW×Balb/c) and transgenic homozygous Mpv17−/− mice (H. Weiher, T. Noda, D. A. Gray, A. H. Sharpe and R. Jaenisch (1990), Cell, 62, pp. 425434) were obtained at an age of 7 to 9 months and frozen in liquid nitrogen. LUSVX cells (SV40 immortalised fibroblasts from the lungs of Mpv17−/− mice), and NIX1 5 cells (Mpv+/+ cells derived from LUSVX cells by stable transfection of an expression construct for the human Mpv17 cDNA) (A. Reuter. A. Nestl, R. M. Zwacka, J. Tuckermann, R. Waldherr, E. M. Wagner, M. Hoyhtya, A. M. Meyer zum Gottesberge, P. Angel and H. Weiher (1998), Molecular Biology of the Cell, 9, pp. 1675-1682) were grown in DMEM including 10% fetal calf serum (FCS) and 1 μg/ml puromycin (NIX15 cultures) at 6.5% CO2 Cells were harvested by trypsinisation and each 5×10^6 cells were washed in 1.5 ml of phosphate-buffered saline (PBS) before freezing the pellet in liquid nitrogen. […]
# Cell fractions were prepared by differential centrifugation from 20% tissue and cell homogenates (w/v) in 10 mM potassium phosphate buffer, pH 7.0, containing 0.25 M sucrose, 150 mM potassium chloride, 1 mM EDTA, 2 mM dithiothreitol, and 50 μM phenylmethylsulfonyl fluoride. […] Protein was measured by the method of Bradford using bovine serum albumin as standard (M. M. Bradford (1976), Analytical Biochemistry, 72, pp. 248-254).
structure (smiles),measurement,value
"O=C(O)c1ccc(-c2c3nc(c(-c4ccc(C(=O)O)cc4)c4ccc([n-]4)c(-c4ccc(C(=O)O)cc4)c4nc(c(-c5ccc(C(=O)O)cc5)c5ccc2[n-]5)C=C4)C=C3)cc1.[Mn+3] [MnTBAP, Mn(III)tetrakis(4-benzoic acid)porphyrin]",Glutathione Peroxidase activity,26.1 v 0.6 nmol/min per mg of protein
